In PMC7819943, “Rice protein-binding microarrays: a tool to detect cis-acting elements near promoter regions in rice”:
The other results are listed elsewhere or left out.

target: T1, OsSMF1 (Oryza sativa, UniProt Q6ZLB0 1-436); assay: protein-binding microarray (RPBM); PBS, 2% BSA, 51.3 ng/ul salmon testes DNA, 50 uM zinc acetate, 200 nM TF, 25 C, 1 h; high values mean tight binding; conditions: protein: recombinant; tags: N-terminal polyhistidine and DsRed monomer fusion (pET32a); chain copies: 2; label: CyDye5-dUTP incorporated in the synthesized complementary strand; 3' TTTTT single-stranded linker to array surface; dsDNA, one strand shown
T1 sequence: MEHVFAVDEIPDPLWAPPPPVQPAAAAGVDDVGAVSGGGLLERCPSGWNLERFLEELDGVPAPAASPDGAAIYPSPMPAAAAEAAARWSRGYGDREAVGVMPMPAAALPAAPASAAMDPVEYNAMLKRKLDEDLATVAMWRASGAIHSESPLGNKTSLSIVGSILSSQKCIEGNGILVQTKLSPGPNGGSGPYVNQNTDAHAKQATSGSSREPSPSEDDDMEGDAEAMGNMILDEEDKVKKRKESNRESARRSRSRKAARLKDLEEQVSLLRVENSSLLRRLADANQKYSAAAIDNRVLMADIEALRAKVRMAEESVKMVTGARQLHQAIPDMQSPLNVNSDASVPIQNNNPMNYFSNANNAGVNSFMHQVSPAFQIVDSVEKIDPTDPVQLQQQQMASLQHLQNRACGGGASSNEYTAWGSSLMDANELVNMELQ
In short: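 The binding signal for each feature is its fluorescence intensity in arbitrary units. An Axon 4000B scanner was used to read a custom Agilent array that had been made double-stranded with Cy5-dUTP primer extension, blocked with 2% BSA, incubated at 25 °C for 1 h with 200 nM protein in PBS, 2% BSA, salmon testes DNA and 50 µM zinc acetate, and washed. The protein was an N-terminal polyhistidine–DsRed transcription factor fusion from E. coli BL21-CodonPlus, purified on Ni–NTA.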

Row | Sequence | binding signal
1 | CATCTCAGGTGAGACCAGGAGCAATCTCTAGTCTGCCACACGGAGTCACCTAGTGCAG | 4910 fluorescence intensity (a.u.)
2 | TACAAACCACCTATGCCTATTTGTCATTGTCACCAATATCCGGAGTCACCTAGTGCAG | 5220 fluorescence intensity (a.u.)
3 | TCCCCTCGAGGGATGAAAATCCACATCCATATGCCTTATCCGGAGTCACCTAGTGCAG | 3380 fluorescence intensity (a.u.)
4 | TCCGGCCCAGTAGGATGGCCCAAAGAGTACGCTTACCTGGCGGAGTCACCTAGTGCAG | 3890 fluorescence intensity (a.u.)
5 | GATATATTCCCTTGCAACTAGGGGTGAAAATGGGGCGGGTCGGAGTCACCTAGTGCAG | 3560 fluorescence intensity (a.u.)
6 | TCGTCGTTCTTGGCGCCACCACATCGCGGGAGATGAGCCACGGAGTCACCTAGTGCAG | 3240 fluorescence intensity (a.u.)
7 | CTCTTGACCAGCCGAGCGCACCGTCATCAGGCTACATCTCCGGAGTCACCTAGTGCAG | 5290 fluorescence intensity (a.u.)
8 | CGTCGCTTGCCCCGACGACCACCGTGTCCGCGCTCGCCTTCGGAGTCACCTAGTGCAG | 3900 fluorescence intensity (a.u.)
9 | CTTGCGATGCGTGGTGAGTGGTGACTGTAATGTAATGGAACGGAGTCACCTAGTGCAG | 3450 fluorescence intensity (a.u.)
10 | TTTTCTGGGCACATGTTCGTTGTTGTTATCGTCACGTATCCGGAGTCACCTAGTGCAG | 3160 fluorescence intensity (a.u.)
11 | TTCCAAACACAGCCTAATTAAGCTAGCTGTGTCATCCGACCGGAGTCACCTAGTGCAG | 4460 fluorescence intensity (a.u.)
12 | ATCAACGTATCTAAACCGGATGGAAACACGTATCTAAACACGGAGTCACCTAGTGCAG | 6180 fluorescence intensity (a.u.)
13 | TCCTCACCCTCTCGCCACGTCTGCTTCGATCCCTTCTCCTCGGAGTCACCTAGTGCAG | 10800 fluorescence intensity (a.u.)
14 | GACCCTGCCGCCCTCCATTTGGGCGGCAAGCTGACGTGGCCGGAGTCACCTAGTGCAG | 32700 fluorescence intensity (a.u.)
15 | TTTATATTCCAACCTTTGCTTCAACCATACTCCAGTTGTACGGAGTCACCTAGTGCAG | 4050 fluorescence intensity (a.u.)
16 | TGTGACCGGTTTTGATTAGTTAAGGGACGCCGGGTATCTGCGGAGTCACCTAGTGCAG | 31600 fluorescence intensity (a.u.)
17 | ATTCTGCAACATTGACTAGACTCTTCTATATTGTTAATCTCGGAGTCACCTAGTGCAG | 3250 fluorescence intensity (a.u.)
18 | AATTCTAGGTCCAGCACTGTGCTTACCTGTATAGAAGCCTCGGAGTCACCTAGTGCAG | 3200 fluorescence intensity (a.u.)
19 | ACTTTATCCTCTCCCACGTCGCCAGCGTTCCCTTGTTGCTCGGAGTCACCTAGTGCAG | 4530 fluorescence intensity (a.u.)
20 | TATTTTCCTTAACATTCGTGTCTTCTGAGTGTGACGCGTGCGGAGTCACCTAGTGCAG | 4280 fluorescence intensity (a.u.)
21 | TACTTAATCTGTTGTTATCCAGCTATCTTACACGTTATTTCGGAGTCACCTAGTGCAG | 3910 fluorescence intensity (a.u.)

An excerpt of these results, tab-delimited:
Row	Sequence	binding signal
11	TTCCAAACACAGCCTAATTAAGCTAGCTGTGTCATCCGACCGGAGTCACCTAGTGCAG	4460 fluorescence intensity (a.u.)
12	ATCAACGTATCTAAACCGGATGGAAACACGTATCTAAACACGGAGTCACCTAGTGCAG	6180 fluorescence intensity (a.u.)
13	TCCTCACCCTCTCGCCACGTCTGCTTCGATCCCTTCTCCTCGGAGTCACCTAGTGCAG	10800 fluorescence intensity (a.u.)
14	GACCCTGCCGCCCTCCATTTGGGCGGCAAGCTGACGTGGCCGGAGTCACCTAGTGCAG	32700 fluorescence intensity (a.u.)
15	TTTATATTCCAACCTTTGCTTCAACCATACTCCAGTTGTACGGAGTCACCTAGTGCAG	4050 fluorescence intensity (a.u.)
16	TGTGACCGGTTTTGATTAGTTAAGGGACGCCGGGTATCTGCGGAGTCACCTAGTGCAG	31600 fluorescence intensity (a.u.)
17	ATTCTGCAACATTGACTAGACTCTTCTATATTGTTAATCTCGGAGTCACCTAGTGCAG	3250 fluorescence intensity (a.u.)

(list continues)

Row | Sequence | binding signal
22 | ATTAGTCGATCTAGGTTCGAGTTTCGCCCCTTTCTCAATACGGAGTCACCTAGTGCAG | 7770 fluorescence intensity (a.u.)
23 | CGTGCACGTGTTCACCGGAGGTGCTCGTCAGCAAAGCAGGCGGAGTCACCTAGTGCAG | 6000 fluorescence intensity (a.u.)
24 | TACCAATGCACCAACAAATGAGTCATTGACCACCCAATTGCGGAGTCACCTAGTGCAG | 8470 fluorescence intensity (a.u.)
25 | ACCACTCTACCACAACCATTACGCTATCCGCCACGAGCAACGGAGTCACCTAGTGCAG | 3270 fluorescence intensity (a.u.)
26 | CGGCGTCCACGCTCATCACCGTCTCCACCAACGCCTCGTCCGGAGTCACCTAGTGCAG | 3740 fluorescence intensity (a.u.)
27 | AGAATACGTATTATGCTCAAATACGCCTTCGCGTGGCGGTCGGAGTCACCTAGTGCAG | 3320 fluorescence intensity (a.u.)
28 | GCGCAAAGCAGCCGCGGTCAGCAGCATCACACACTGCAGCCGGAGTCACCTAGTGCAG | 4880 fluorescence intensity (a.u.)
29 | AAACAAACTCTGTGTTGTTGGTGATTGTATTCTCTCCTTGCGGAGTCACCTAGTGCAG | 3260 fluorescence intensity (a.u.)
30 | TATGGTTGGGGATGATTTTGTATCTTAGATGACAAGTTGACGGAGTCACCTAGTGCAG | 3320 fluorescence intensity (a.u.)
31 | AAATTCTTACTGATGTGTCATGCTACAATCGAATCGTGAACGGAGTCACCTAGTGCAG | 5230 fluorescence intensity (a.u.)
32 | CAGCAGCATGACCCGTTCCTGGCCGCCTACGTGGCGTGCACGGAGTCACCTAGTGCAG | 19400 fluorescence intensity (a.u.)
33 | GAAAAGAGAGTGTGCACGCGGACGTGGCATCTGGCATGTGCGGAGTCACCTAGTGCAG | 10500 fluorescence intensity (a.u.)
34 | ATGTTGTATTATATAGAAATGACATGTCCTGGATGCATTCCGGAGTCACCTAGTGCAG | 4310 fluorescence intensity (a.u.)
35 | AAGTTGAAAATGTTTTCGCTGATATTTTGATACGTTGTTCCGGAGTCACCTAGTGCAG | 6640 fluorescence intensity (a.u.)
36 | AAATACATCCAAGAACACAATATATTCCAATATTTTGTCACGGAGTCACCTAGTGCAG | 34500 fluorescence intensity (a.u.)
37 | TTCTAGCGTGTCTTGGCTGGCGACCGTTACAGTCAGCCAGCGGAGTCACCTAGTGCAG | 3600 fluorescence intensity (a.u.)
38 | CTTGGCAATTGGGCTCTTGAAAACCTGGTGCACAGTCTCACGGAGTCACCTAGTGCAG | 26600 fluorescence intensity (a.u.)
39 | GGGTCGTCGTGAAGTTGGCGTTGGTGGTCATGGACGTGGACGGAGTCACCTAGTGCAG | 3420 fluorescence intensity (a.u.)
40 | CATTGGCTGCCTCTTCTTTCTCTGATGGACTCTAAACCCTCGGAGTCACCTAGTGCAG | 24800 fluorescence intensity (a.u.)
41 | CTACCTTTTGAATTGTTAGAGATGAGTCATCTGGAATAAGCGGAGTCACCTAGTGCAG | 5090 fluorescence intensity (a.u.)
42 | CTTGCTCGATCGTGGTCCATGAACTGATCATCAGAAGGTACGGAGTCACCTAGTGCAG | 24700 fluorescence intensity (a.u.)
